Experimental data as given in the supplement of paper PMC8728848.
The other results are listed elsewhere or left out.

How the values were obtained:
Test in all cases: glycan array binding signal (z-score within array); higher = stronger binding
Details in all cases: glycan notation: IUPAC condensed, linker removed
Gal(b1-2)Gal = target: Gal(b1-2)Gal
Outline: (§1)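 Arrays were curated from the Consortium for Functional Glycomics database, 3228 in total, and kept only where the protein sequence was available. Binding is expressed as a within-array Z-score. This score was averaged across arrays of the same protein sequence at different concentrations or buffers and across linkers, and negative values can be read as non-binding.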

Gal(b1-3)Gal = target: Gal(b1-3)Gal
Outline: as §1

Gal(b1-3)Gal(b1-4)GlcNAc = target: Gal(b1-3)Gal(b1-4)GlcNAc
Outline: as §1

Gal(b1-3)GalNAc = target: Gal(b1-3)GalNAc
Outline: as §1

[1] = target: Gal(b1-3)GalNAc(a1-3)[Fuc(a1-2)]Gal(b1-4)Glc
Outline: as §1

[2] = target: Gal(b1-3)GalNAc(a1-3)[Fuc(a1-2)]Gal(b1-4)GlcNAc
Outline: as §1

Gal(b1-3)GalNAc(b1-3)Gal = target: Gal(b1-3)GalNAc(b1-3)Gal
Outline: as §1

[3] = target: Gal(b1-3)GalNAc(b1-3)Gal(a1-4)Gal(b1-4)Glc
Outline: as §1

[4] = target: Gal(b1-3)GalNAc(b1-4)Gal(b1-4)Glc
Outline: as §1

[5] = target: Gal(b1-3)GalNAc(b1-4)[Neu5Ac(a2-3)]Gal(b1-4)Glc
Outline: as §1

Gal(b1-3)GlcNAc = target: Gal(b1-3)GlcNAc
Outline: as §1

[6] = target: Gal(b1-3)GlcNAc(a1-3)Gal(b1-4)GlcNAc
Outline: as §1

[7] = target: Gal(b1-3)GlcNAc(a1-6)Gal(b1-4)GlcNAc
Outline: as §1

Gal(b1-3)GlcNAc(b1-2)Man = target: Gal(b1-3)GlcNAc(b1-2)Man
Outline: as §1

[8] = target: Gal(b1-3)GlcNAc(b1-2)Man(a1-3)[Gal(b1-3)GlcNAc(b1-2)Man(a1-6)]Man(b1-4)GlcNAc(b1-4)GlcNAc
Outline: as §1

[9] = target: Gal(b1-3)GlcNAc(b1-2)Man(a1-3)[Gal(b1-3)GlcNAc(b1-2)Man(a1-6)]Man(b1-4)GlcNAc(b1-4)[Fuc(a1-6)]GlcNAc
Outline: as §1

[10] = target: Gal(b1-3)GlcNAc(b1-2)Man(a1-3)[GlcNAc(b1-4)][Gal(b1-3)GlcNAc(b1-2)Man(a1-6)]Man(b1-4)GlcNAc(b1-4)GlcNAc
Outline: as §1

[11] = target: Gal(b1-3)GlcNAc(b1-2)[Gal(b1-3)GlcNAc(b1-6)]Man(a1-6)[Gal(b1-3)GlcNAc(b1-2)Man(a1-3)]Man(b1-4)GlcNAc(b1-4)GlcNAc
Outline: as §1

[12] = target: Gal(b1-3)GlcNAc(b1-3)Gal(b1-3)GlcNAc
Outline: as §1

[13] = target: Gal(b1-3)GlcNAc(b1-3)Gal(b1-4)Glc
Outline: as §1

[14] = target: Gal(b1-3)GlcNAc(b1-3)Gal(b1-4)GlcNAc
Outline: as §1

[15] = target: Gal(b1-3)GlcNAc(b1-3)Gal(b1-4)GlcNAc(b1-2)Man(a1-3)[Gal(b1-3)GlcNAc(b1-3)Gal(b1-4)GlcNAc(b1-2)Man(a1-6)]Man(b1-4)GlcNAc(b1-4)GlcNAc
Outline: as §1

[16] = target: Gal(b1-3)GlcNAc(b1-3)Gal(b1-4)GlcNAc(b1-2)[Gal(b1-3)GlcNAc(b1-3)Gal(b1-4)GlcNAc(b1-6)]Man(a1-6)[Gal(b1-3)GlcNAc(b1-3)Gal(b1-4)GlcNAc(b1-2)Man(a1-3)]Man(b1-4)GlcNAc(b1-4)[Fuc(a1-6)]GlcNAc
Outline: as §1

[17] = target: Gal(b1-3)GlcNAc(b1-3)Gal(b1-4)GlcNAc(b1-3)Gal(b1-4)GlcNAc(b1-2)[Gal(b1-3)GlcNAc(b1-3)Gal(b1-4)GlcNAc(b1-3)Gal(b1-4)GlcNAc(b1-6)]Man(a1-6)[Gal(b1-3)GlcNAc(b1-3)Gal(b1-4)GlcNAc(b1-3)Gal(b1-4)GlcNAc(b1-2)Man(a1-3)]Man(b1-4)GlcNAc(b1-4)[Fuc(a1-6)]GlcNAc
Outline: as §1

[18] = target: Gal(b1-3)GlcNAc(b1-3)Gal(b1-4)GlcNAc(b1-6)[Gal(b1-3)GlcNAc(b1-3)]Gal(b1-4)Glc
Outline: as §1

[19] = target: Gal(b1-3)GlcNAc(b1-3)Gal(b1-4)[Fuc(a1-3)]GlcNAc
Outline: as §1

[20] = target: Gal(b1-3)GlcNAc(b1-3)Gal(b1-4)[Fuc(a1-3)]GlcNAc(b1-6)[Gal(b1-3)GlcNAc(b1-3)]Gal(b1-4)Glc
Outline: as §1

[21] = target: Gal(b1-3)GlcNAc(b1-3)GalNAc
Outline: as §1

[22] = target: Gal(b1-3)GlcNAc(b1-6)Gal(b1-4)GlcNAc
Outline: as §1

[23] = target: Gal(b1-3)GlcNAc(b1-6)GalNAc
Outline: as §1

[24] = target: Gal(b1-3)GlcNAc(b1-6)[Gal(b1-3)]GalNAc
Outline: as §1

Gal(b1-3)GlcNAc6S = target: Gal(b1-3)GlcNAc6S
Outline: as §1

[25] = target: Gal(b1-3)[Fuc(a1-4)]GlcNAc
Outline: as §1

[26] = target: Gal(b1-3)[Fuc(a1-4)]GlcNAc(b1-2)Man
Outline: as §1

[27] = target: Gal(b1-3)[Fuc(a1-4)]GlcNAc(b1-2)Man(a1-3)[Gal(b1-3)[Fuc(a1-4)]GlcNAc(b1-2)Man(a1-6)]Man(b1-4)GlcNAc(b1-4)[Fuc(a1-6)]GlcNAc
Outline: as §1

[28] = target: Gal(b1-3)[Fuc(a1-4)]GlcNAc(b1-3)Gal(b1-3)[Fuc(a1-4)]GlcNAc
Outline: as §1

[29] = target: Gal(b1-3)[Fuc(a1-4)]GlcNAc(b1-3)Gal(b1-4)[Fuc(a1-3)]GlcNAc
Outline: as §1

B1: Clec18Av1 (Homo sapiens), A5D8T8 (protein)
chain: MLHPETSPGRGHLLAVLLALLGTAWAEVWPPQLQEQAPMAGALNRKESFLLLSLHNRLRSWVQPPAADMRRLDWSDSLAQLAQARAALCGTPTPSLASGLWRTLQVGWNMQLLPAGLVSFVEVVSLWFAEGQRYSHAAGECARNATCTHYTQLVWATSSQLGCGRHLCSAGQAAIEAFVCAYSPRGNWEVNGKTIVPYKKGAWCSLCTASVSGCFKAWDHAGGLCEVPRNPCRMSCQNHGRLNISTCHCHCPPGYTGRYCQVRCSLQCVHGRFREEECSCVCDIGYGGAQCATKVHFPFHTCDLRIDGDCFMVSSEADTYYRARMKCQRKGGVLAQIKSQKVQDILAFYLGRLETTNEVIDSDFETRNFWIGLTYKTAKDSFRWATGEHQAFTSFAFGQPDNHGFGNCVELQASAAFNWNDQRCKTRNRYICQFAQEHISRWGPGS
glycan array binding signal (z-score) (Gal(b1-2)Gal): 0.03
glycan array binding signal (z-score) (Gal(b1-3)Gal): -0.011
glycan array binding signal (z-score) (Gal(b1-3)Gal(b1-4)GlcNAc): -0.266
glycan array binding signal (z-score) (Gal(b1-3)GalNAc): -0.279
glycan array binding signal (z-score) [1]: 0.731
glycan array binding signal (z-score) [2]: 1.2
glycan array binding signal (z-score) (Gal(b1-3)GalNAc(b1-3)Gal): 1.09
glycan array binding signal (z-score) [3]: -0.54
glycan array binding signal (z-score) [4]: -0.002
glycan array binding signal (z-score) [5]: 0.133
glycan array binding signal (z-score) (Gal(b1-3)GlcNAc): 0.468
glycan array binding signal (z-score) [6]: 0.532
glycan array binding signal (z-score) [7]: 4.04
glycan array binding signal (z-score) (Gal(b1-3)GlcNAc(b1-2)Man): -0.432
glycan array binding signal (z-score) [8]: 0.576
glycan array binding signal (z-score) [9]: -0.36
glycan array binding signal (z-score) [10]: 0.885
glycan array binding signal (z-score) [11]: -0.727
glycan array binding signal (z-score) [12]: 0.533
glycan array binding signal (z-score) [13]: -0.411
glycan array binding signal (z-score) [14]: -0.579
glycan array binding signal (z-score) [15]: -0.749
glycan array binding signal (z-score) [16]: -0.106
glycan array binding signal (z-score) [17]: 0.466
glycan array binding signal (z-score) [18]: 0.939
glycan array binding signal (z-score) [19]: -0.636
glycan array binding signal (z-score) [20]: 0.375
glycan array binding signal (z-score) [21]: 0.798
glycan array binding signal (z-score) [22]: -0.721
glycan array binding signal (z-score) [23]: -0.223
glycan array binding signal (z-score) [24]: 0.084
glycan array binding signal (z-score) (Gal(b1-3)GlcNAc6S): 1.38
glycan array binding signal (z-score) [25]: -0.808
glycan array binding signal (z-score) [26]: -0.248
glycan array binding signal (z-score) [27]: 0.227
glycan array binding signal (z-score) [28]: -0.586
glycan array binding signal (z-score) [29]: -0.826
